The list shows a part of the results.

Chains of the proteins cited; added tags and fusions are not shown. Lines headed by an entry give the natural chain unless they say otherwise; changes in a name come on top.
UniProt Q86SQ9: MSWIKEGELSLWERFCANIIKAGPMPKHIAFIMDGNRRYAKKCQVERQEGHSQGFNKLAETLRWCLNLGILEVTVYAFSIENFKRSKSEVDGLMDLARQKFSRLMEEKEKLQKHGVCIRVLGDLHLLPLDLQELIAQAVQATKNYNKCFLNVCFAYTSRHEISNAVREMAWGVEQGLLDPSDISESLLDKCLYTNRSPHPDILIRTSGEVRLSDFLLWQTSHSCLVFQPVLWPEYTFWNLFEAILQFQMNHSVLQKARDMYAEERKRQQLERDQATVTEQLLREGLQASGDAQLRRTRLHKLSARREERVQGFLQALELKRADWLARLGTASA
UniProt Q6P3S1: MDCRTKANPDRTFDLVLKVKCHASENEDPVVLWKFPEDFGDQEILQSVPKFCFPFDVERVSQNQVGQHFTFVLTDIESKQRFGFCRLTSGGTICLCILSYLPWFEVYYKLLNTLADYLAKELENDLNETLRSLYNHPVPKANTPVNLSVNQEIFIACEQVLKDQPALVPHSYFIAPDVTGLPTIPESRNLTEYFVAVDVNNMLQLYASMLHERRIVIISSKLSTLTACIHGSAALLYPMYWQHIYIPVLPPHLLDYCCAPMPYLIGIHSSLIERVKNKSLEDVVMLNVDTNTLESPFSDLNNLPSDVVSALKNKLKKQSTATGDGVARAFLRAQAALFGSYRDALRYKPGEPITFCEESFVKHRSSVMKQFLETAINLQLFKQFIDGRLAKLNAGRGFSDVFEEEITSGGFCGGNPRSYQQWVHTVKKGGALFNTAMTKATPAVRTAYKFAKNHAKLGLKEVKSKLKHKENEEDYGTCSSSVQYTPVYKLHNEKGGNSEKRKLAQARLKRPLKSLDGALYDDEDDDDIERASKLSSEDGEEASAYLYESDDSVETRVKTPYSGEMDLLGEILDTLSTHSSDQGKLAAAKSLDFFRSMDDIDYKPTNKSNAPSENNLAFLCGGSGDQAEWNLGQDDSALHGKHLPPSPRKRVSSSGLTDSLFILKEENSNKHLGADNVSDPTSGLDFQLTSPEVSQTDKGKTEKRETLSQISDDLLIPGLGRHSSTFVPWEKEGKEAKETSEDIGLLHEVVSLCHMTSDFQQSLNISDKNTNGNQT
UniProt Q9BTZ2: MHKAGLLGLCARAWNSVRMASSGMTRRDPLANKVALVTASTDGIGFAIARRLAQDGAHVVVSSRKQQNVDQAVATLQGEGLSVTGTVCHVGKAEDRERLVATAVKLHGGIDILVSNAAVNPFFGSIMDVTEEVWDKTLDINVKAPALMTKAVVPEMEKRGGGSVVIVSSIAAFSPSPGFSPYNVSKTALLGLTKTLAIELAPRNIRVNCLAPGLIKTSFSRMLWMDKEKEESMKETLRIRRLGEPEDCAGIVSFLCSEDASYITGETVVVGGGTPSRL
UniProt Q96QB1: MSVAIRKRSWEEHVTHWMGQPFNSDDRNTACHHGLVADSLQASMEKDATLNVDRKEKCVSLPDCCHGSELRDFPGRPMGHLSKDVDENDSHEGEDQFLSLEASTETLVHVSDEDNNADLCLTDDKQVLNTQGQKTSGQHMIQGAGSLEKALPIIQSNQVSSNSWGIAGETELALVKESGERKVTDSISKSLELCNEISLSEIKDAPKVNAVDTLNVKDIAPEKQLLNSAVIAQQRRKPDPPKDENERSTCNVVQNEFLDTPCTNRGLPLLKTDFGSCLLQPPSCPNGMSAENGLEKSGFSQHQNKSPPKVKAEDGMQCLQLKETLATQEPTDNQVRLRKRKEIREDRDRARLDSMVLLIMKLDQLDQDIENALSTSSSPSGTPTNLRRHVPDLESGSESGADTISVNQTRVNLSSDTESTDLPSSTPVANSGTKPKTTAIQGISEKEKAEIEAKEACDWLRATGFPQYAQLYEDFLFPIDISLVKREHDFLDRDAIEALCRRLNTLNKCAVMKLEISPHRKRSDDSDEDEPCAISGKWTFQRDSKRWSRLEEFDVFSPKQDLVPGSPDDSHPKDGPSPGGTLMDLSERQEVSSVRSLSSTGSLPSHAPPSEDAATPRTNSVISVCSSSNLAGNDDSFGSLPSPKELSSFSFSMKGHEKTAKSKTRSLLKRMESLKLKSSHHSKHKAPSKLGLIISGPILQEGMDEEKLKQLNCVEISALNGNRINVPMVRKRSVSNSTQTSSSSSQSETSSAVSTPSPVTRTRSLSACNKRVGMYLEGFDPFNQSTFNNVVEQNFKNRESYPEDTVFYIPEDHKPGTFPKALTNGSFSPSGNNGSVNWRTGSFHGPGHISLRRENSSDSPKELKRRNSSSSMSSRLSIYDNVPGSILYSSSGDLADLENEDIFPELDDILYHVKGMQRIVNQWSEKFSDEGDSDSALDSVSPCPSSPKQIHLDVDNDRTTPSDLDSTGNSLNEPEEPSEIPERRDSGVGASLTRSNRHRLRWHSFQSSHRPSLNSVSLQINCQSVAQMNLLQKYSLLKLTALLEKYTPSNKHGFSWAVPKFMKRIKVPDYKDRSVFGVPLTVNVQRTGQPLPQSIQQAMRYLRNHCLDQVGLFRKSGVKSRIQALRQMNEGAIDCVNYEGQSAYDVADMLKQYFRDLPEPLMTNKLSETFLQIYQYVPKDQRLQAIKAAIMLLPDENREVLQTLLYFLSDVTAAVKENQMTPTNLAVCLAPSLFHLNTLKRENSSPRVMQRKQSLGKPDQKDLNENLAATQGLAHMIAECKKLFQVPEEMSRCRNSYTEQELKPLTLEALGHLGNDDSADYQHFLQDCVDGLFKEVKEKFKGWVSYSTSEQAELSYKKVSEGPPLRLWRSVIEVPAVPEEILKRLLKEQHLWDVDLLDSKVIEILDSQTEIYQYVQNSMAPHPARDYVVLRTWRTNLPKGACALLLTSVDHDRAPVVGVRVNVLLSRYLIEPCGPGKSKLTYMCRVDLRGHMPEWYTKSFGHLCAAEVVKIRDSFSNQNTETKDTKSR
UniProt O95865: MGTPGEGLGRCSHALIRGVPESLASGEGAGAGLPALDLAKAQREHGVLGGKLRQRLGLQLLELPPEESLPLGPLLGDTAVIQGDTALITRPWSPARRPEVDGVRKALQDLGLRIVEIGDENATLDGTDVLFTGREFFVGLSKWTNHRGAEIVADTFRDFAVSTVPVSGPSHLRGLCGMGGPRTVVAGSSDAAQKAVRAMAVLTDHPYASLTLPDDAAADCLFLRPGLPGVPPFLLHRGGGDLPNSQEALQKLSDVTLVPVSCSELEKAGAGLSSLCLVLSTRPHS
UniProt O00571: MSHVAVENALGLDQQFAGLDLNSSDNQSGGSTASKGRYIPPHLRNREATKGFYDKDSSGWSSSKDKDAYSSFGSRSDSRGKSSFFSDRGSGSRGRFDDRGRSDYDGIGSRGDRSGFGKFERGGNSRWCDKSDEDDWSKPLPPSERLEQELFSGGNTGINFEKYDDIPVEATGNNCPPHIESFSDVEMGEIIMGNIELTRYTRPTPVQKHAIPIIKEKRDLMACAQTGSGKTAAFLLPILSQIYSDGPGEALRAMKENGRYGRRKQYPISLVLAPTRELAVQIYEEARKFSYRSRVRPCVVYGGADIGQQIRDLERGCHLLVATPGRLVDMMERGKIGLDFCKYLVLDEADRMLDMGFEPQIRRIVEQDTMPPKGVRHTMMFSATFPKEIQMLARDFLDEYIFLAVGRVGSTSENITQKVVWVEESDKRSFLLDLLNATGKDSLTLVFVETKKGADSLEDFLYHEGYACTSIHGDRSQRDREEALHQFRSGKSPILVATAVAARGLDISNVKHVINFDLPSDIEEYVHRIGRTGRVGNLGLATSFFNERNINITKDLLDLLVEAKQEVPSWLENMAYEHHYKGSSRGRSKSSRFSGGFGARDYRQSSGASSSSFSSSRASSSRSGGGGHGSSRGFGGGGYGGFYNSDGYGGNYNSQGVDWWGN
UniProt Q9UMR2: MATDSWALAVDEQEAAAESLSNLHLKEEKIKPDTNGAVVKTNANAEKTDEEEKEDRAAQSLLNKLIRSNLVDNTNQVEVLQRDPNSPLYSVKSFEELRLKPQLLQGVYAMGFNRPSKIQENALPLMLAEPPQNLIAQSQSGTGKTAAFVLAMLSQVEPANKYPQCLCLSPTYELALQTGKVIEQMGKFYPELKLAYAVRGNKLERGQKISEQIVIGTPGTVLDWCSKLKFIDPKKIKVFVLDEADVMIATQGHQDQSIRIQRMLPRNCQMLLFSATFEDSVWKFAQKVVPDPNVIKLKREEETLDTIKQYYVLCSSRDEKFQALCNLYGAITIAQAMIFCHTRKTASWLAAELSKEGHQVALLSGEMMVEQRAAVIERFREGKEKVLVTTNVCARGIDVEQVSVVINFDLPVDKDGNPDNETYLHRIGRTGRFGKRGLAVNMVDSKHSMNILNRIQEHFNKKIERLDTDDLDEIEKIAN
UniProt Q6ICB0: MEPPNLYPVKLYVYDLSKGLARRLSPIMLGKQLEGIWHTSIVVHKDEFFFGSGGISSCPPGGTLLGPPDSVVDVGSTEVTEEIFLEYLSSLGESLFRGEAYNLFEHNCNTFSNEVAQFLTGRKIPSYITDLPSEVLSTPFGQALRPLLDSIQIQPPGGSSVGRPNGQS
UniProt Q92841: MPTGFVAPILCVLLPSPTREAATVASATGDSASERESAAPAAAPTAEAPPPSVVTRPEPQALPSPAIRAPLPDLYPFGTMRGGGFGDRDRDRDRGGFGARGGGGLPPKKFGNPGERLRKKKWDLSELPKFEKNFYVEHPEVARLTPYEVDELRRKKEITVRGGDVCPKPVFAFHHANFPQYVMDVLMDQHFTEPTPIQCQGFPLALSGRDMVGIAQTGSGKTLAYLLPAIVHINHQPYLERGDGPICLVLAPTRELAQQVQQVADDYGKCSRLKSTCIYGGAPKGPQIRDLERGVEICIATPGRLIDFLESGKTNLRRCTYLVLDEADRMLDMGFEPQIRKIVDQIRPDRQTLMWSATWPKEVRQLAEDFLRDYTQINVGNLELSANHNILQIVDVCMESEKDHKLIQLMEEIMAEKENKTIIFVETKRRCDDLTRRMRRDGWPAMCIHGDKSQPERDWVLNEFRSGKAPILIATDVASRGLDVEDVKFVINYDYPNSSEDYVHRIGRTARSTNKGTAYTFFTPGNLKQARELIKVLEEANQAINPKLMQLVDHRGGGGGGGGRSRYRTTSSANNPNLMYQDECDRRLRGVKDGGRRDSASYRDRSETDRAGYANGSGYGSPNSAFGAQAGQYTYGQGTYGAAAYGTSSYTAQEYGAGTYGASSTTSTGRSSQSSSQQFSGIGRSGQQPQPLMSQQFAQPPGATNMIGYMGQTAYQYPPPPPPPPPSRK
UniProt O60832: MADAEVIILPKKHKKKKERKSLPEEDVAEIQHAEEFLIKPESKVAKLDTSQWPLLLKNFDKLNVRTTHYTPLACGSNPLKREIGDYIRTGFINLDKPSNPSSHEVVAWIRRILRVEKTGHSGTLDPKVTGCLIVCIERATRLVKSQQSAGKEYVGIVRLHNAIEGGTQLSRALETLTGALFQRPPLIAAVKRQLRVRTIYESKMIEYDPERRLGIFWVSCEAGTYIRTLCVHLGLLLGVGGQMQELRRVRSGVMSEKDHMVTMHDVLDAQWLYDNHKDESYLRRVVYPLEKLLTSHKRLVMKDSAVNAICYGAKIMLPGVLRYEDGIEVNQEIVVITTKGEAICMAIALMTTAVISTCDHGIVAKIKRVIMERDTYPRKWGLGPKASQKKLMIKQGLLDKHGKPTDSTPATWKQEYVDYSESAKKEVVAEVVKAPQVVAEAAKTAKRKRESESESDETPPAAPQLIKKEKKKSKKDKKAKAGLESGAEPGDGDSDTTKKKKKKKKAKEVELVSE
UniProt Q92499: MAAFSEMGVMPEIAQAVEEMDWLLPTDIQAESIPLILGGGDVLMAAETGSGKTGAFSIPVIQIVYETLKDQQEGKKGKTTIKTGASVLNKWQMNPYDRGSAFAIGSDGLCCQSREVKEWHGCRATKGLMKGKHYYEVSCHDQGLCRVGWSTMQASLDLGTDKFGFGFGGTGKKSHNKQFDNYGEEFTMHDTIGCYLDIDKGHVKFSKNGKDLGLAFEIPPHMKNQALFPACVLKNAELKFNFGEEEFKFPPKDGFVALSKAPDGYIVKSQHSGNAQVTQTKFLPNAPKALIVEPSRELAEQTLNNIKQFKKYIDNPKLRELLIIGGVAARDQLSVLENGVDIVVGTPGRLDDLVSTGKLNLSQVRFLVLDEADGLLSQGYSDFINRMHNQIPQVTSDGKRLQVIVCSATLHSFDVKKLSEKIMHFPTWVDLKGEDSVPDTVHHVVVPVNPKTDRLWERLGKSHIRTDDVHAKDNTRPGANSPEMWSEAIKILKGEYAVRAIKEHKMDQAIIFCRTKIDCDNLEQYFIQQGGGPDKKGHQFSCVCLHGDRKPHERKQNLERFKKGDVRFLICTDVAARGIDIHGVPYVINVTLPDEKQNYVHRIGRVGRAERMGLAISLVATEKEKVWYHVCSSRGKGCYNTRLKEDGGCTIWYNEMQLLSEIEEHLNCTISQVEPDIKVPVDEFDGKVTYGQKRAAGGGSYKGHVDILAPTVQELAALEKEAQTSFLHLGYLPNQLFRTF

Compound in the test: c1cn2cc(-c3ccc4cn[nH]c4c3)nc(Nc3ccc(N4CCOCC4)cc3)c2n1 [entospletinib]
Nature of the test: log2 fold change, soluble protein after heating vs DMSO (PISA); higher = thermal stabilisation; K562 cells, 10 uM, 30 min; active = over 0.2 and 3.5 SD of the protein, either way, in both replicates (recomputed). The essentials:
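K562 cells at 2×10^6 cells/mL were treated for 30 min with 10 μM compound, and aliquots were heated for 3 min over 48°C-58°C before pooling. Extraction used PBS with 0.5% NP-40 at 4°C, and soluble protein was the supernatant after 21,000xg for 90 min, measured by TMTpro 16plex LC-MS/MS with channel sums equalised. Thermal stability values, relative to control samples and from duplicates, are log2 fold changes.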
Regarding DDX55 (UniProt Q8NHQ9), the log2 fold change is inactive: 0.174.

As for DMTN (UniProt Q08495), the log2 fold change is inactive: 0.008. With DMD (UniProt P11532), the log2 fold change was inactive: -0.008.

In the case of DHX38 (UniProt Q92620), the log2 fold change is inactive: -0.044. Turning to DIS3L2 (UniProt Q8IYB7), the log2 fold change is inactive: -0.028. As to DIP2B (UniProt Q9P265), the log2 fold change is inactive: -0.002. Under DHDDS isoform 2 (UniProt Q86SQ9) stands inactive: 0.033; under DENND1B (UniProt Q6P3S1), inactive: 0.138; under DHRS4 (UniProt Q9BTZ2), inactive: -0.093.

In the case of DLC1 (UniProt Q96QB1), the log2 fold change was inactive: -0.129. Under DGKZ (UniProt Q13574) stands inactive: -0.001; under DDAH2 (UniProt O95865), inactive: -0.016. As for DNAH9 (UniProt Q9NYC9), the log2 fold change was inactive: -0.001. On to DHX57 (UniProt Q6P158), for which the log2 fold change is inactive: 0.045. In the case of DHX30 isoform 2 (UniProt Q7L2E3), the log2 fold change is inactive: 0.225. Regarding DDX3X (UniProt O00571), the log2 fold change is inactive: 0.309. Take DHX15 (UniProt O43143): the log2 fold change is inactive: -0.039.

DDX19B (UniProt Q9UMR2): the log2 fold change was inactive: -0.046. Under DESI1 (UniProt Q6ICB0) stands inactive: 0.032. Turning to DLGAP5 (UniProt Q15398), the log2 fold change is inactive: 0.01. Under DDX17 (UniProt Q92841) stands inactive: 0.06; under DDX39B isoform 2 (UniProt Q13838), inactive: 0.002.

Regarding DKC1 (UniProt O60832), the log2 fold change was inactive: 0.031. Regarding DDX1 (UniProt Q92499), the log2 fold change is inactive: 0.063. Under DGAT1 (UniProt O75907) stands inactive: -0.048; under DDX25 (UniProt Q9UHL0), inactive: -0.071; under DNA2 (UniProt P51530), inactive: -0.08.

Turning to DDX19A (UniProt Q9NUU7), the log2 fold change was inactive: -0.089. With DDX6 (UniProt P26196), the log2 fold change is inactive: 0.045.

These data come from the supplement of paper PMC10849652.
